# Laboratory results reported in publication PMC7212688.
# Protein sequences, listed by entry. Tags and fused reporters are not part of them.
# UniProt Q04206: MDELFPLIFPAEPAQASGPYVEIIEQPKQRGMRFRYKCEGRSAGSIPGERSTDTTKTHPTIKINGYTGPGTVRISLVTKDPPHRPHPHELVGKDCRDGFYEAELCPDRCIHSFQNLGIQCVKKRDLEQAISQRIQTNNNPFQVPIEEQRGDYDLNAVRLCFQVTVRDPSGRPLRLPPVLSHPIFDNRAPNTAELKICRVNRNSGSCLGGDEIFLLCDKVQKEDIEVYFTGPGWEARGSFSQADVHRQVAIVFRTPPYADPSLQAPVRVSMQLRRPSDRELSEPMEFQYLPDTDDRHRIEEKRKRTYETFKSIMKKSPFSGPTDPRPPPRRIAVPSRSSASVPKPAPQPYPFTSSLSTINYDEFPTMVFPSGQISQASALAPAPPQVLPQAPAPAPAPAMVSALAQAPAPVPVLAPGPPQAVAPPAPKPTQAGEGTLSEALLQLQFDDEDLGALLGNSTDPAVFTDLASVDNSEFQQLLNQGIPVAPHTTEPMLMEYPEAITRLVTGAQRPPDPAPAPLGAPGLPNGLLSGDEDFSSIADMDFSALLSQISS
# These are yes or no findings as the source states them, for the method shown. In cells and extracts the contact can be indirect. Some entries that bind do so weakly or less than the wild type. Where a sequence is shown, tags or fusion partners need not be part of it.
# Target: T1, Flag-tagged full-length human NKRF (human) (UniProt O15226)
# T1 sequence: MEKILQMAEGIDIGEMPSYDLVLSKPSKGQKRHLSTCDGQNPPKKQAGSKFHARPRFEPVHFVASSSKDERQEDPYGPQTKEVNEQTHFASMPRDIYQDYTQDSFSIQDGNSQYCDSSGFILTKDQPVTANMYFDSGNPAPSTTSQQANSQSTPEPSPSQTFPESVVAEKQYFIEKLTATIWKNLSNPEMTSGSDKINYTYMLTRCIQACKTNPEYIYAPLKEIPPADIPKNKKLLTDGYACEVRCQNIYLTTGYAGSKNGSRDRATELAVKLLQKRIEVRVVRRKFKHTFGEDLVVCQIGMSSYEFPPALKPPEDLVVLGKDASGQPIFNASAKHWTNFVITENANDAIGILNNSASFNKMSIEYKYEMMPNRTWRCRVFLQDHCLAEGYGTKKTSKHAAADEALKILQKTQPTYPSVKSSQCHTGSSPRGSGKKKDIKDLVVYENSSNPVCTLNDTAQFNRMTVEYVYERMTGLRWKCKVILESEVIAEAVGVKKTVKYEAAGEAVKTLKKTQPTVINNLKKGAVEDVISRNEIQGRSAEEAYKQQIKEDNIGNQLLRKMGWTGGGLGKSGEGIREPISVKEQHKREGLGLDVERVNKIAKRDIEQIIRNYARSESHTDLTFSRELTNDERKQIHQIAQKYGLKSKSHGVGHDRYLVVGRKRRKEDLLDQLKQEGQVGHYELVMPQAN
# Assay: co-IP; 1 x 10^7 cells lysed in 50 mM Tris pH 7.4, 150 mM NaCl, 1% NP-40, 0.25% sodium deoxycholate; immunoprecipitated with anti-FLAG M2 magnetic beads at 4 °C overnight, washed five times; Western blot; cells with control or TROJAN (lncRNA) knockdown
substance,measurement,value
RELA (from UniProt Q04206 1-551),binding,binds
